Experimental data reported in patent US20230348854A1 (SEATTLE CHILDREN S HOSPITAL D B A SEATTLE CHILDREN S …, published 2023).

The chains behind the UniProt entries cited, without tags or fusion partners. Residues count along the entry.
UniProt O76036, 22-304 Q82K limits assumed: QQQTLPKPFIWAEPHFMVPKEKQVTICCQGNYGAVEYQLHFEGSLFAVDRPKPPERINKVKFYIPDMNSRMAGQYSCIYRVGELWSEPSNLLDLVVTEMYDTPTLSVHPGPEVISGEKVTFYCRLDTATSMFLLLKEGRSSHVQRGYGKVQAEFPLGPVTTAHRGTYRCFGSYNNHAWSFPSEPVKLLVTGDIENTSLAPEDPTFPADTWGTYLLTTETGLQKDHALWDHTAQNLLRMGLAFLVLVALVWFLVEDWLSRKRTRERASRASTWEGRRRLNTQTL

Target: Human NKp46 (NCR1, CD335), on cells (human, UniProt O76036 22-304)
Experiment: cell-based or functional assay

B1: anti-NKp46 CAR (αNKp46 CAR), expressed on primary human T cells (scFv)
chain: DIVMTQAAPSIPVTPGESVSISCRSSKSLLYINGNTHLFWFLQRPGQSPQLLIYRMSNLASGVPDRFSGSGSGTAFTLRISRVEAEDVGVYYCMQHLEYPFTFGSGTKLEIKGGGGSGGGGSGGGGSEIQLQQSGAELVKPGASVKLSCTASGFNIKDTYFHWVKQRPEQGLEWIGRIDPANGNTKYDPKFHDKATIIADISSNTAYLQFSSLTSEDTAVYYCAANRYGYWGQGTTLTVSSAKPTTTPAPRPPTPAPTIASQPLSLRPEACRPAAGGAVHTRGLDFACDIYIWAPLAGTCGVLLLSLVITKRGRKKLLYIFKQPFMRPVQTTQEEDGCSCRFPEEEEGGCELRVKFSRSADAPAYQQGQNQLYNELNLGRREEYDVLDKRRGRDPEMGGKPRRKNPQEGLYNELQKDKMAEAYSEIGMKGERRRGKGHDGLYQGLSTATKDTYDALHMQALPPR
CD137 upregulation in αNKp46 CAR T cells against NK92 cells, fold over αCD19 CAR T cells: 6 fold
IFNγ expression of NK cells cultured with αNKp46 CAR T cells, fold over NK cells cultured with αCD19 CAR T cells: 3.5 fold
TNFα expression of NK cells cultured with αNKp46 CAR T cells, fold over NK cells cultured with αCD19 CAR T cells: 1.8 fold
percentage of CAR T (BFP+) cells expressing CD137, fold increase against CD19 CAR T cells mixed with the same NKp46+ target cells: 5 fold
percentage of anti-NKp46 CAR T cells with intracellular IFN-γ expression, fold increase relative to CD19 CAR T cells mixed with NKp46+ target cells: 9 fold
percentage of anti-NKp46 CAR T cells with intracellular IL-2 expression, fold increase relative to CD19 CAR T cells mixed with NKp46+ target cells: 10.5 fold
percentage of anti-NKp46 CAR T cells with intracellular TNF-α expression, fold increase relative to CD19 CAR T cells mixed with NKp46+ target cells: 11 fold
percentage of autologous NK cells expressing IFN-γ or TNF-α after contact with anti-NKp46 CAR T cells, fold increase (lower end): 2 to 3 fold
percentage of autologous NK cells expressing IFN-γ or TNF-α after contact with anti-NKp46 CAR T cells, fold increase (upper end): 2 to 3 fold
reduction of the percentage of NKp46+ K562 cells after 24 hours, 2:1 ratio: 70%
